Chains of the proteins cited; added tags and fusions are not shown. Lines headed by an entry give the natural chain unless they say otherwise; changes in a name come on top.
UniProt P69720: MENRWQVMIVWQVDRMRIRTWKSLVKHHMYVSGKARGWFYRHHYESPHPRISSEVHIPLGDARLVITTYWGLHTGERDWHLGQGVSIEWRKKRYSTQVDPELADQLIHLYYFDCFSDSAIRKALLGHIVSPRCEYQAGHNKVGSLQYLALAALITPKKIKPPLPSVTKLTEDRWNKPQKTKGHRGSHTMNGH
UniProt P69721: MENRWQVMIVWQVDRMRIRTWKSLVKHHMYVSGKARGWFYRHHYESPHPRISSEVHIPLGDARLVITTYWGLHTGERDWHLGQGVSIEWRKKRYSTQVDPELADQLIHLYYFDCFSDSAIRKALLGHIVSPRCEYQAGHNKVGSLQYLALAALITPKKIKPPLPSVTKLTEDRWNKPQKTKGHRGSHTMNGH
UniProt P69722: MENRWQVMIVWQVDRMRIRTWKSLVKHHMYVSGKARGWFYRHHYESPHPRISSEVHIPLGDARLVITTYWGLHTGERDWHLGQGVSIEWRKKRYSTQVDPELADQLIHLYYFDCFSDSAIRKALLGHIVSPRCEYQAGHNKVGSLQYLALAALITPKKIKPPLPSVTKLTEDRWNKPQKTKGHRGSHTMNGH
UniProt P69723: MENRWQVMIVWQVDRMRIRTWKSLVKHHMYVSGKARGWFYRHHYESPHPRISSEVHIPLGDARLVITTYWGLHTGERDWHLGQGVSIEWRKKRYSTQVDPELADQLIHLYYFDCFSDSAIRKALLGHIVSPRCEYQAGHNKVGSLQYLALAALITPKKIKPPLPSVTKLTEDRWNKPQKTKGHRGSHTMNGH
UniProt Q9HC16: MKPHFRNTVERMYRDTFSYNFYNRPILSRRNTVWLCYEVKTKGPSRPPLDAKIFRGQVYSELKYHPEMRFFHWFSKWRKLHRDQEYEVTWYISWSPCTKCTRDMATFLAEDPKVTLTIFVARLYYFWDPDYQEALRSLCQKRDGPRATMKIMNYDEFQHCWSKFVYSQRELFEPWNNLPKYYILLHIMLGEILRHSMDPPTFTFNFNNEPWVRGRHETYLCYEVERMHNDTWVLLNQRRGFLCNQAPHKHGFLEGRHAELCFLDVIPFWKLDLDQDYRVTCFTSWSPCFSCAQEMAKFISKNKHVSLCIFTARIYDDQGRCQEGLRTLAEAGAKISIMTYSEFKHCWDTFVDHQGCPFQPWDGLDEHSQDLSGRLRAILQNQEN

Among all 260,000 compounds or so, about 1,500 (0.58%) were called active. The shares of active, inactive and inconclusive entries below differ from those in the screen.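 The calls were made as follows: active = inhibition above a set limit at one or more doses, reproduced on every date tested; inconclusive = results disagree between test dates, or hit never tested in dose response; inactive = the rest.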
What follows are compounds tested against Virion infectivity factor (Human immunodeficiency virus type 1 group M subtype B (isolate BH10)) + Virion infectivity factor (Human immunodeficiency virus type 1 group M subtype B (isolate BRU/LAI)) + Virion infectivity factor (Human immunodeficiency virus type 1 group M subtype B (isolate PCV12)) + Virion infectivity factor (Human immunodeficiency virus type 1 group M subtype B (isolate HXB2)) + DNA dC->dU-editing enzyme APOBEC-3G (Homo sapiens) (UniProt P69720+P69721+P69722+P69723+Q9HC16) (assay: inhibitors of Vif binding to APOBEC3G peptide, primary screen, biochemical, TR-FRET, GST-Vif 1-94, biotin-A3G peptide, dose response retest (AID 1117319;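 also: Vif residues 1-94 fused to GST binding biotinylated APOBEC3G peptide 110-148; 0% = full assay without inhibitor and 100% = GST in place of GST-Vif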)). Settings: active compounds read high.
For `O=C1NN(c2ccccc2)C(=O)/C1=C\c1ccccc1OCC(=O)N1CCOCC1`, the inhibition was inconclusive: 33.8%.
With `CC(=O)COc1nc2c(c(-c3ccco3)c1C#N)CCc1ccccc1-2` the inhibition was inconclusive: 53.2%.
For `COc1cc(/C=C(\C#N)C(=O)NCC2CCCO2)ccc1OCC(=O)O` (centres undefined), the inhibition was inconclusive: 46.8%.
For `COc1cccc(C(C(=O)NC(C)(C)C)N(Cc2ccco2)C(=O)CCC(=O)Nc2cc(C)on2)c1OC` (centres undefined), the inhibition was inconclusive: 39.1%.
In the case of `O=C(Cc1cccs1)N/N=C\c1ccc([N+](=O)[O-])s1`, the inhibition is reported as inconclusive: 57.7%.
For `Oc1ccc(Cl)cc1N=Nc1ccccc1`, the inhibition was inactive: 0.9%.
With `Cc1noc(C)c1S(=O)(=O)N1CCCC(C(=O)NCc2ccccn2)C1` (centres undefined) the inhibition was inconclusive: 47.8%.
For `N#Cc1cn(CCOC(=O)c2cccc(C(F)(F)F)c2)c(=O)[nH]c1=O`, the inhibition was inconclusive: 34.5%.
`Nc1nc(-c2cccnc2)nn1C(=O)c1ccc(Cl)cc1` was tested, and the inhibition was inconclusive: 38.6%.
For `CCOC(=O)c1cc(OC(=O)c2cccnc2)n(-c2ccccc2)n1`, the inhibition was inconclusive: 35.6%.
For `C=CCc1ccc(OCCOc2cccc3ccc(C)nc23)c(OC)c1`, the inhibition was inconclusive: 43.6%.
For `CC(C)OCCCN1CN(S(=O)(=O)c2cccs2)c2nc3ccccc3nc21`, the inhibition was inconclusive: 44%.
With `Cc1ccc(CN(C)C(=O)c2ccccc2Oc2ccccc2)o1` the inhibition was inconclusive: 48.1%.
For `COCCCN1C(=O)c2ccc(C(=O)OCC(=O)NCCc3ccccc3)cc2C1=O`, the inhibition was inconclusive: 59.5%.
In the case of `O=C(CCS(=O)(=O)c1cccc2nonc12)N1CCCc2ccccc21`, the inhibition is reported as inconclusive: 53.6%.
In the case of `COc1ccc(C(=O)NC2CC2)cc1OC1CCN(Cc2ccccc2F)CC1`, the inhibition is reported as inactive: -1.16%.
`COc1ccccc1C(c1c(N)n(C)c(=O)n(C)c1=O)C(C)[N+](=O)[O-]` (centres undefined) was tested, and the inhibition was inconclusive: 43.6%.
`CC(=O)Nn1c(-c2ccccc2)cc2ccccc21` was tested, and the inhibition was inconclusive: 45.9%.
For `COc1ccccc1N(C)S(=O)(=O)c1ccc(C(=O)OCC(=O)Nc2ccccc2F)cc1`, the inhibition was inconclusive: 46.1%.
With `CC[n+]1ccc(C[n+]2ccccc2)c2ccccc21` the inhibition was inactive: 31.8%.
`Cc1ccc(CNS(=O)(=O)c2ccc(-n3cnnn3)c(C)c2)cc1` was tested, and the inhibition was inconclusive: 44.4%.
`CCc1ccc2nc(N(CCN(C)C)C(=O)/C=C/c3cccs3)sc2c1` was tested, and the inhibition was inconclusive: 44.5%.
With `COc1cc(/C=C/C(=O)c2c(O)cc(C)oc2=O)cc(OC)c1O` the inhibition was inconclusive: 56.9%.
With `Cc1nn(CCC#N)c2nc(C(F)(F)F)[nH]c(=O)c12` the inhibition was inconclusive: 43.8%.
For `Cc1oc2c(c1C(=O)NC(Cc1c[nH]c3ccccc13)C(=O)O)CCCC2` (centres undefined), the inhibition was inconclusive: 60.4%.
For `CCNC(=O)N1c2ccc(OCC)cc2C(C)=CC1(C)C`, the inhibition was inconclusive: 60.4%.
For `CC1CCN(C(c2ccc(N(C)C)cc2)c2nnnn2C(C)(C)C)CC1` (centres undefined), the inhibition was inconclusive: 52.6%.
In the case of `CC(C)(C)c1cc(NC(=O)Nc2ccc(Br)cc2Cl)no1`, the inhibition is reported as inconclusive: 35.5%.
For `COC(=O)CNC(=O)C(C)(C)Oc1ccc(Cl)cc1`, the inhibition was inactive: -6.52%.
In the case of `O=C(CN1CCN(Cc2ccc3c(c2)OCO3)CC1)NCC(F)(F)F`, the inhibition is reported as inconclusive: 47.7%.
In the case of `CSc1nc(N(C)CCO)c2sc3nc(-c4ccco4)c4c(c3c2n1)CCC4`, the inhibition is reported as inconclusive: 33.8%.
With `Nc1c(C(=O)Nc2ccc(F)cc2)sc2nc(-c3ccco3)ccc12` the inhibition was inconclusive: 30.8%.
`O=C(OCn1nnc2ccccc2c1=O)c1cccnc1Cl` was tested, and the inhibition was inactive: 0.6%.
For `CCc1c(C)nc(SCCOc2ccc(OC)cc2)[nH]c1=O`, the inhibition was inconclusive: 35.7%.
In the case of `CC(C)[C@@H]1NC(=O)c2cc([N+](=O)[O-])cc(F)c2NCCC[C@@H](C(N)=O)NC(=O)[C@H](CO)NC1=O`, the inhibition is reported as inconclusive: 47.5%.
With `N#CC1=C(N)OC2=C(CC/C2=C\c2ccccc2)C1c1ccccc1` (centres undefined) the inhibition was inactive: 22.4%.
In the case of `C[C@@H]1CC=C[C@H]2[C@H]1C(=O)N(Cc1ccccc1)[C@H]2c1ccc(-c2ccoc2)cc1F`, the inhibition is reported as inconclusive: 57.4%.
In the case of `O=C(CSc1nc2cc([N+](=O)[O-])ccc2n1-c1ccc(F)cc1)NC1CCS(=O)(=O)C1` (centres undefined), the inhibition is reported as inconclusive: 37.5%.
`CCOC(=O)C1=C(CSc2nc3c(cc2C#N)CN(C)CC3)OC(N)=C(C#N)C1c1ccc(Cl)cc1` (centres undefined) was tested, and the inhibition was inconclusive: 38.7%.
In the case of `O=C(CCC1COc2ccccc2O1)NCc1ccccc1` (centres undefined), the inhibition is reported as inconclusive: 52.5%.
In the case of `O=C(O)C(Sc1ccncn1)c1ccccc1` (centres undefined), the inhibition is reported as inconclusive: 34.3%.
With `COc1cccc(N2CN(C3CCCCC3)CNC2=S)c1` the inhibition was inconclusive: 48.4%.
For `Cc1cccc(N(CC(=O)NCc2ccc3c(c2)OCO3)C(=O)CCC(=O)Nc2ccccn2)c1C`, the inhibition was inconclusive: 9.93%.
In the case of `CC1=C(C(=O)Nc2ccccc2C)C(c2ccc(C)o2)n2c(s/c(=C/c3ccccc3)c2=O)=N1` (centres undefined), the inhibition is reported as inactive: 29.2%.
`S=C(NCc1ccco1)N/N=C/c1ccc(Cl)cc1` was tested, and the inhibition was inconclusive: 50.7%.
With `Cc1ccc(CNc2ncnc3c2cnn3-c2ccccc2)cc1` the inhibition was inconclusive: 10.4%.
In the case of `COC(=O)c1cc(NCc2ccccc2F)ccc1N1CCOCC1`, the inhibition is reported as inconclusive: 33.9%.
In the case of `C=CCn1c(=NC(=O)c2ccco2)sc2cc(C(=O)OC)ccc21`, the inhibition is reported as inconclusive: 41.6%.
For `COc1cccc(NC(=O)CSc2nnc(Cn3nnc4ccccc43)n2C)c1`, the inhibition was inconclusive: 35.9%.
For `OC1COC(OCC2OC(OCc3ccccc3)C(O)C(O)C2O)C(O)C1O` (centres undefined), the inhibition was inconclusive: 38.8%.
In the case of `COc1cccc(CNC(=O)C2CCN(S(=O)(=O)c3cccc4cccnc34)CC2)c1`, the inhibition is reported as inconclusive: 36.2%.
In the case of `Cc1ccc2nc3c(nc2c1C)C(O)=C3O`, the inhibition is reported as inconclusive: 41.6%.
`O=C(O)CCS(=O)(=O)Cc1ccccc1Cl` was tested, and the inhibition was inactive: 3.96%.
With `Cc1ccc(N(CC(=O)NCc2ccc(F)cc2)C(=O)c2csnn2)c(C)c1` the inhibition was inconclusive: 52.1%.
In the case of `C/C(=N\NC(=O)CNC(=O)c1ccco1)c1ccc(Br)cc1`, the inhibition is reported as inactive: -0.8%.
`CC1(OC(=O)C2CCCC2)C(=O)C=C2C=C(c3ccsc3)N(C3CCCCC3)C=C2C1=O` (centres undefined) was tested, and the inhibition was inconclusive: 36.7%.
With `CCc1cccc(NC(=O)CCSCCC(=O)Nc2cccc(CC)c2)c1` the inhibition was inactive: -3.74%.
With `COc1ccccc1C(=O)Nc1ccc(S(=O)(=O)Nc2cc(C)on2)cc1` the inhibition was inconclusive: 38.5%.
In the case of `NC(=O)c1oc2ccccc2c1NC(=O)c1nc2ccccc2s1`, the inhibition is reported as inconclusive: 52%.
`COc1cccc(=O)c2c(C)oc(C)c12` was tested, and the inhibition was inconclusive: 52.8%.
With `O=C(CN1CCN(S(=O)(=O)c2ccc(Br)cc2)CC1)N/N=C/c1ccco1` the inhibition was inconclusive: 49.4%.
For `CC(C)[C@H](NC(=O)c1ccc(Cl)c([N+](=O)[O-])c1)C(=O)NCc1ccc(Cl)cc1Cl`, the inhibition was inconclusive: 35.8%.
`Cc1ccc(C(=O)Cn2nnc3ccccc32)cc1` was tested, and the inhibition was inconclusive: 15.1%.
With `Cc1nc(SCc2ccc(C(=O)O)cc2)c2c(C)c(C)sc2n1` the inhibition was inconclusive: 38.6%.
For `O=C(Nc1cccs1)Nc1c(F)c(F)c(F)c(F)c1F`, the inhibition was inconclusive: 39%.
In the case of `COc1ccc(OC)c(C(=O)Cn2nnc3ccccc3c2=O)c1`, the inhibition is reported as inconclusive: 38.8%.
`CCN(CC)S(=O)(=O)c1ccc(N2CCOCC2)c(NC(=O)CCC2CCCCC2)c1` was tested, and the inhibition was inactive: -9.59%.
For `CCCCN(C)C(=O)CCCc1c[nH]c2ccccc12`, the inhibition was inconclusive: 46.9%.
In the case of `COCCCN(C(=O)c1cc2c(s1)CCC2)c1c(N)n(Cc2ccccc2)c(=O)[nH]c1=O`, the inhibition is reported as inconclusive: 34.5%.
With `CC(C)(C)NC(=O)C(c1ccncc1)N(C(=O)CNC(=O)c1ccco1)c1ccc(F)cc1` (centres undefined) the inhibition was inactive: 5.09%.
`COc1cc(NC2c3ccccc3C(=O)N2c2cc(C)ccn2)cc(OC)c1OC` (centres undefined) was tested, and the inhibition was inconclusive: 51.2%.
In the case of `Cc1c([N+](=O)[O-])cc(S(=O)(=O)Nc2ccncc2)cc1[N+](=O)[O-]`, the inhibition is reported as inconclusive: 60.8%.
In the case of `CCOc1cc(CNc2ccc(O)cc2)cc(Br)c1OCc1ccccc1F`, the inhibition is reported as inconclusive: 75.2%.
In the case of `C/C(N)=C(/C#N)C(=O)COC(=O)CNC(=O)c1ccc(Cl)cc1Cl`, the inhibition is reported as inconclusive: 51.9%.
In the case of `Cc1cccc(NC(=O)CSc2nnc(-c3ccncc3)n2C)c1`, the inhibition is reported as inconclusive: 46.1%.
In the case of `Cc1ccc(-c2nn(-c3ccccc3)cc2/C=N/NS(=O)(=O)c2ccccc2)cc1`, the inhibition is reported as inconclusive: 62.9%.
With `COCc1cc(=O)n2[nH]c(C(F)(F)F)nc2n1` the inhibition was inconclusive: 54.3%.
For `COc1ccc(NS(=O)(=O)c2cc(NC(=O)C3CC3)ccc2N2CCCCC2)cc1`, the inhibition was inconclusive: 35.2%.
With `Cc1ccc(NC(=O)C2CC3CCC2C3)c(Br)c1` (centres undefined) the inhibition was inactive: -0.68%.
For `CCc1ccc2c(CSc3nnnn3C)cc(=O)oc2c1`, the inhibition was inconclusive: 43.2%.
`C/C(CC(=O)Nc1ccccn1)=N\NC(=O)C(=O)Nc1cccc(C)c1` was tested, and the inhibition was inconclusive: 43.5%.
With `CCCOc1ccc(NC(N)=O)cc1OCCC` the inhibition was inactive: 0.61%.
With `CCN1CCN(c2nc3ccccn3c(=O)c2/C=C(\C#N)S(=O)(=O)c2ccccc2)CC1` the inhibition was inactive: -0.55%.
For `COc1cccc(OC)c1OCCN(C)C`, the inhibition was inconclusive: 33.5%.
With `CSc1ccc(S(=O)(=O)Nc2ccc3c4c(cccc24)CC3)cc1` the inhibition was inconclusive: 53.3%.
With `COc1ccc(C)cc1S(=O)(=O)N(CC(=O)O)c1ccccc1` the inhibition was inconclusive: 53.9%.
`CC1CCCC(C)N1C(=O)c1cc(-c2ccc(Cl)c(Cl)c2)on1` (centres undefined) was tested, and the inhibition was inconclusive: 51.2%.
`O=C(O)c1cc2cc(F)ccc2[nH]1` was tested, and the inhibition was inconclusive: 40.5%.
In the case of `O=C(c1ccccc1)c1c[nH]c2cc3c(cc2c1=O)OCO3`, the inhibition is reported as inconclusive: 33.6%.
